Test results reported in the supplement of paper PMC12823440, “Inhibitors supercharge kinase turnover through native proteolytic circuits” (Nature, 2025).
Structures can show the parent of a compound that is named as a salt. This is one part of the list. Hit calls seldom repeat between salt and free forms of one compound.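 Kinases, fused to nanoluciferase, were expressed in K562 cells; luminescence was measured every 4 h from 2 to 18 h as percent of control (DMSO = 100%, positive control = 0%). A time point is decreased if signal falls significantly (2 sigma). Hits were called by the authors by a rule that is not shown; the count of time points alone does not decide it.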

What follows are compounds tested against MAP2K1 (UniProt Q02750) (assay: number of time points (of 5) at which kinase-Nluc abundance scored as decreased, DMSO-normalised (count); higher = more persistent destabilization). Conditions: K562; 2-18 h.

SMILES | number of time points
FC(F)(c1ccc2ncccc2c1)c1nnc2ccc(-c3ccncc3)nn12 (10 µM) | 0
COc1ccc(-c2ccc3c(N4CCOCC4)nc(N4C[C@@H](C)O[C@@H](C)C4)nc3n2)cc1CO (2.5 µM) | 0
C=CC(=O)Nc1ccc(CN2C(=O)N(c3cc(OC)cc(OC)c3)Cc3cnc(Nc4ccc(N5CCN(C)CC5)cc4)nc32)cc1 (2.5 µM) | 0
O=C1NC(=O)/C(=C\c2cccc(C(F)(F)F)c2)S1 (2.5 µM) | 0
CN(C)C(=O)Cn1cc(-c2ccc(-c3cncc4ccccc34)cc2)cn1 (10 µM) | 0
COc1ccccc1-c1cc(Nc2cccc(CS(N)(=O)=O)c2)ncn1 (10 µM) | 0
C[C@@H]1COCCN1c1cc(C2([S@@](C)(=N)=O)CC2)nc(-c2ccnc3[nH]ccc23)n1 [(S)-Ceralasertib] (10 µM) | 0
c1cc(-c2c[nH]c3nccc(N4CCC[C@@]5(CCCCN5)C4)c23)ncn1 (10 µM) | 0
Cc1ccc2nc(NCCN)c3ncc(C)n3c2c1 (2.5 µM) | 0
C=CC(=O)Nc1cccc(Nc2nc(Nc3ccc(NC4CN(CCF)C4)cc3OC)ncc2C(F)(F)F)c1 (2.5 µM) | 0
COc1ncc(Cl)cc1S(=O)(=O)Nc1ccc(F)c(C#Cc2cnc(N)nc2)c1F (2.5 µM) | 0
C=CC(=O)Nc1cccc(Nc2nc(Nc3ccc(N4CCN(C(C)=O)CC4)cc3OC)ncc2C(F)(F)F)c1 [Rociletinib hydrobromide] (10 µM) | 0
C[C@@]1(c2ncncc2F)NC(=O)c2cc(-c3cn[nH]c3)ccc21 (10 µM) | 0
Cc1[nH]c(/C=C2\C(=O)Nc3ccc(F)cc32)c(C)c1C(=O)N[C@H]1CCN(C(=O)N(C)C)C1 [Vorolanib] (10 µM) | 0
NC(=O)c1ccc(-c2nc(-c3ccc4c(c3)OCCO4)c(-c3ccccn3)[nH]2)cc1 (10 µM) | 0
Cc1ccc2cc(-c3c(C)ccc(C(=O)c4c(-c5ccccc5)n(C)n(-c5ccccc5)c4=O)c3N)ccc2n1 (2.5 µM) | 0

As entered above:
For number of time points, `FC(F)(c1ccc2ncccc2c1)c1nnc2ccc(-c3ccncc3)nn12` (10 µM) reads 0
For number of time points, `O=C1NC(=O)/C(=C\c2cccc(C(F)(F)F)c2)S1` (2.5 µM) reads 0

(next part)

SMILES | number of time points
OCCn1cc(-c2ccc3c(c2)CC/C3=N\O)c(-c2ccncc2)n1 (10 µM) | 0
NCCNS(=O)(=O)c1cccc2c(Cl)cccc12 [A-3 (hydrochloride)] (10 µM) | 0
COc1cccc(OC)c1C(=O)OCc1cc(O)ccc1O[C@@H]1O[C@H](CO)[C@@H](O)[C@H](O)[C@H]1O [Curculigoside] (10 µM) | 0
CC#CC(=O)N1CC[C@@H](n2c(=O)n(-c3ccc(Oc4ccccc4)cc3)c3c(N)ncnc32)C1 [Tirabrutinib] (10 µM) | 0
CC1=C(C(=O)O)N2C(=O)[C@@H](NC(=O)[C@H](N)C3=CCC=CC3)[C@H]2SC1 [Cephradine] (10 µM) | 0
CC(C)(C)c1nc(-c2cccc(NS(=O)(=O)c3c(F)cccc3F)c2F)c(-c2ccnc(N)n2)s1 [Dabrafenib] (2.5 µM) | 0
COc1cc2c(N3CCN(C(=O)Nc4ccc(OC(C)C)cc4)CC3)ncnc2cc1OCCCN1CCCCC1 [Tandutinib] (10 µM) | 0
Nc1cc(C(F)(F)F)c(-c2cc(N3CCOCC3)nc(N3CCOCC3)n2)cn1 [Buparlisib (Hydrochloride)] (2.5 µM) | 0
Cn1cc(-c2ccc3c(c2)CCN3C(=O)Cc2cccc(C(F)(F)F)c2)c2c(N)ncnc21 (2.5 µM) | 0
O=C1NC(=O)/C(=C/c2ccc3nccnc3c2)S1 (10 µM) | 0
Cn1ncc(Cl)c1-c1cc(C(=O)N[C@H](CN)Cc2ccc(F)c(F)c2)oc1Cl [Uprosertib] (10 µM) | 0
COCCNc1nc2ccc(C#CC3(O)CCCCC3)cc2n1-c1ccnc(N)n1 (10 µM) | 0
CC(=O)NC1CC(n2cnc(NC(=O)Cc3ccc4ccccc4c3)c2)C1 (configuration not stated) (10 µM) | 0
COc1cc(Nc2ncc(F)c(Nc3ccc4c(n3)NC(=O)C(C)(C)O4)n2)cc(OC)c1OC (10 µM) | 0
C=C(CC[C@@H](C(=O)O)[C@H]1[C@H](O)C[C@@]2(C)C3=C(CC[C@]12C)[C@@]1(C)CC[C@H](OC(C)=O)C(C)(C)[C@@H]1CC3)C(C)C [Pachymic acid] (10 µM) | 0
O=C(NOCC(O)CO)c1cc(Br)c(F)c(F)c1Nc1ccc(I)cc1F (configuration not stated) (2.5 µM) | 0
